## Screening data, single-dose tests

The chains behind the UniProt entries cited, without tags or fusion partners. Residues count along the entry.
UniProt Q8IDJ8, 1-583: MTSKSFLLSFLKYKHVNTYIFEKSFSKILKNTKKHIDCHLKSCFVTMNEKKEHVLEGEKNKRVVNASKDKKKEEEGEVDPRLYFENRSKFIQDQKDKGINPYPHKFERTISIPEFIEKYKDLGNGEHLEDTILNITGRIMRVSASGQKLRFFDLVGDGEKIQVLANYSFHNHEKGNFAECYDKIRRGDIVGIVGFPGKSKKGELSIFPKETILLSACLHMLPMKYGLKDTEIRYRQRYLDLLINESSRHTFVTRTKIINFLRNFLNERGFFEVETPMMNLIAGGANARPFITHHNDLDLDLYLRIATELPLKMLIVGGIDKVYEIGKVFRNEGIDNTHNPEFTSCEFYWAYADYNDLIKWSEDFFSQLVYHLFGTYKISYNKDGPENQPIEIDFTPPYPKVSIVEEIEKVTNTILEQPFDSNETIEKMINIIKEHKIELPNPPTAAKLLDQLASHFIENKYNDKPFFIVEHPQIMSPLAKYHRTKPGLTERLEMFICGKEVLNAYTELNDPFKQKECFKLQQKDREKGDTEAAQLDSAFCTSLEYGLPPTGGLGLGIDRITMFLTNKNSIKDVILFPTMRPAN
UniProt P9WPC5, whole entry: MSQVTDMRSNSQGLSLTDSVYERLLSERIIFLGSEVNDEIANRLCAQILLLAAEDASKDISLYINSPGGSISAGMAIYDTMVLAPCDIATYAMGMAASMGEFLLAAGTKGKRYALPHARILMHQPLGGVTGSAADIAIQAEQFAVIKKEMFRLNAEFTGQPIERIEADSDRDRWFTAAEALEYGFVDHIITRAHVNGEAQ
UniProt P9WPC3, whole entry partner: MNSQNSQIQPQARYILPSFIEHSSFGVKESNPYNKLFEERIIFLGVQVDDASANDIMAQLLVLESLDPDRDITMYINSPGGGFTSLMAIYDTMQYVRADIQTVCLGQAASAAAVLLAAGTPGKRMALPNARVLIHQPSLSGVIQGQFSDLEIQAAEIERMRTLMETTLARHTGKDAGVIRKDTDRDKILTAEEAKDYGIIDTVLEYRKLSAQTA

PfKRS1: 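Lysine-tRNA ligase, Plasmodium falciparum 3D7 (UniProt Q8IDJ8). Enzyme assay of the cytosolic lysyl-tRNA synthetase in 384-well plates, read by luminescence. Tested at 30 µM. Higher reads as stronger inhibition, judged from the few compounds that gave an IC50. Size under these conditions: about 69,000 compounds, about 49 of them at 50% or above in at least one test.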
ClpP1P2: 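ClpP1P2, Mycobacterium tuberculosis (UniProt P9WPC5 and UniProt P9WPC3). Protease assay of ClpP1P2, read by the AMC dye that it sets free. Tested at 50 µM. Higher reads as stronger inhibition, judged from the few compounds that gave an IC50. Most other retested compounds had strongly negative values. Of about 69,000 compounds tested this way, about 10 (0.015%) reached 50% or more in at least one test.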

Results are given as percent effect. The record does not define 0% and 100%; most values in the screen are far below 50% and negative numbers occur (in some assays of this library far below -100). The compounds are a random part of those screened.

| # | SMILES | PfKRS1 | ClpP1P2 |
|---|---|---|---|
| 1 | `Cc1ccc(N2CCCc3sc(C(=O)NCCC#N)nc32)nn1` | 5.226 | -7.223 |
| 2 | `COc1ccc(CC(=O)N2CCC3(CC2)CCN(CC(C)C)C3=O)cc1` | 5.909 | 0.07474 |
| 3 | `CC(=O)N1CCC(c2nnc3ccc(C(=O)NCC(C)C)cn23)C1` (stereo unspecified) | -1.143 | 1.509 |
| 4 | `CS(=O)(=O)N1CCC(Oc2ccc(C#N)cc2)CC1` | 1.607 | -1.707 |
| 5 | `Cc1ccc(C)c(C(=O)N2CCOC(CCN(C)C)C2)c1` (stereo unspecified) | -3.258 | -8.929 |
| 6 | `Cn1nccc1-c1cccc(CC2CCN(S(C)(=O)=O)C2)n1` (stereo unspecified) | 0.3003 | -11.88 |
| 7 | `CN(C)CCN(Cc1ccccc1)C(=O)C1=NNC(=O)CC1` | 0.6369 | -0.6834 |
| 8 | `CC1=C(C(=O)N(C)Cc2noc3c2CCCC3)C(C)NC(=O)N1` (stereo unspecified) | 0.5866 | 15.63 |
| 9 | `O=c1cnc2ccccc2n1CCCn1cccn1` | 2.699 | -10.59 |
| 10 | `CCN(CC1CN(Cc2c(C)noc2C)CCO1)c1cccnn1` (stereo unspecified) | 0.6404 | -5.502 |
| 11 | `O=C(c1cnccn1)N1CCC(F)(F)C2(CCN(c3ccccn3)C2)C1` (stereo unspecified) | -0.5977 | 1.992 |
| 12 | `CN(C)C(=O)CN1CC[C@@H]2O[C@@H](COCc3cccnc3)CC[C@@H]21` | 1.525 | -1.577 |
| 13 | `CSc1cc2c(cc1NC(=O)NCc1ccncc1)OCCO2` | 1.937 | -1.537 |
| 14 | `CN(Cc1ccsc1)C(=O)Nc1ccc(S(C)(=O)=O)cc1` | 0.8419 | -5.978 |
| 15 | `CN(Cc1ccccc1)CC1(O)CCCN(CC(C)(C)C)C1=O` (stereo unspecified) | -0.4573 | -3.282 |
| 16 | `CC(C)(CNC(=O)Nc1nccs1)N1CCOCC1` | 1.975 | 2.307 |
| 17 | `O=C(c1ccco1)N1CCCC(c2cc(C(F)F)n3ncnc3n2)C1` (stereo unspecified) | 1.125 | -4.864 |
| 18 | `O=C(O)c1c(-c2ccncc2)ncc2c1CCN(CC1CCOC1)C2` (stereo unspecified) | 0.7561 | 2.673 |
| 19 | `CCc1ccc(CC)c(NCC(=O)N2CCCC(NC(C)=O)C2)c1` (stereo unspecified) | 5.928 | 5.468 |
| 20 | `CCC(C(=O)NC(C)(C)C)n1cccc(OC)c1=O` (stereo unspecified) | -2.086 | 4.856 |
| 21 | `CN(C)c1ncc(-c2ccncc2)c(CCNC(=O)C2CC2)n1` | 0.6976 | -15.62 |
| 22 | `O=C(O)c1c(-c2cccnc2)ncc2c1CCN(Cc1cccnc1)C2` | 1.155 | -3.453 |
| 23 | `NC(=O)CCn1ccc(NCc2cc(F)ccc2Br)n1` | 0.485 | -3.239 |
| 24 | `OC1(CNc2ccc(Br)cn2)CCC1` | -3.403 | -2.503 |
| 25 | `CC(=O)N1CCN(Cc2ccsc2)CC2(CC(=O)N(C)C2)C1` (stereo unspecified) | 1.69 | -0.5989 |
| 26 | `COc1ccc2c(c1)OCC(Cc1ccc(CN)cn1)C2` (stereo unspecified) | 0.7654 | -8.1 |
| 27 | `Cc1nnc(CN(Cc2ccc3c(c2)OCO3)C2CCC(C)CC2)o1` (stereo unspecified) | 3.793 | -12.84 |
| 28 | `O=C1NCC[C@]12CN(Cc1cccnc1)C[C@H]2c1ccccc1` | 2.711 | -16.31 |
| 29 | `Cc1cc(C(=O)NCC(O)c2ccc(Cl)s2)c(C)o1` (stereo unspecified) | 6.325 | -8.629 |
| 30 | `Cc1ccc(C(=O)NCC(O)c2cnn(C)c2)c(Br)c1` (stereo unspecified) | 0.7359 | -18.22 |
| 31 | `Cc1ccc(NC2CCN(C(=O)CCc3ccco3)CC2)nn1` | -1.694 | 0.2432 |
| 32 | `CCNC(=O)C1CCCN1S(=O)(=O)c1sc(=O)[nH]c1C` (stereo unspecified) | 5.153 | -1.1 |
| 33 | `CCC(C)CN(C)C(=O)NCc1ccccc1-n1cccn1` (stereo unspecified) | 3.538 | -0.9961 |
| 34 | `CCN1CC(COc2ccc(OC)cc2)Oc2ccncc2S1(=O)=O` (stereo unspecified) | 3.891 | 13.64 |
| 35 | `O=C1CCCN1Cc1nc(-c2ccsc2)no1` | 2.471 | -5.869 |
| 36 | `O=C(CCc1cccs1)NCC1CCCN1c1cccnn1` (stereo unspecified) | 5.585 | -0.14 |
| 37 | `CN1CCN(c2ccc(F)cc2C(N)=O)CC1` | 0.9228 | -18.46 |
| 38 | `O=C(NCCn1ccnc1)C1COCC(=O)N1Cc1ccccc1` (stereo unspecified) | -0.1195 | -2.265 |
| 39 | `COc1ccc(S(=O)(=O)Cc2cc(C)on2)cc1` | 2.436 | 1.954 |
| 40 | `O=C(c1cccnc1)N1C[C@@H]2OCC(=O)N(Cc3cccnc3)[C@@H]2C1` | 6.406 | -2.988 |
| 41 | `Cc1ccc2nc(C(=O)N3CCCC[C@]4(C)NC(=O)CCC[C@H]34)cn2c1` | 1.759 | -10.27 |
| 42 | `CCOC(=O)CNC(=O)N1CCN(c2ncccn2)CC1` | 0.6128 | -8.025 |
| 43 | `CCC1=NN2C(=N)/C(=C\c3cccn3-c3ccc(Br)cc3)C(=O)N=C2S1` | 1.179 | 8.709 |
| 44 | `COc1ccc([C@@H]2CN(C(=O)CCn3cccn3)C[C@H]2NC(C)=O)cc1` | -5.267 | -1.443 |
| 45 | `O=C(NCc1ccc(-n2cncn2)nc1)c1ccc2c(c1)CCO2` | -0.7706 | 13.32 |
| 46 | `CC(C)C(=O)N1CCN(C(=O)N(C)C)CC2(CC(=O)N(C)C2)C1` (stereo unspecified) | -3.184 | 16.51 |
| 47 | `Cc1cnn(C2CCCN(C(=O)c3cn(-c4ccccc4)nn3)C2)c1` (stereo unspecified) | -0.8575 | -11.13 |
| 48 | `COc1cc2nc3n(c(=O)c2cc1OC)CCN(C(C)=O)CC3` | 0.5282 | -4.858 |
| 49 | `CCN(CC)Cc1cc(C(=O)N2CCC3(CC2)NCCNC3=O)c(C)o1` | 4.981 | -15.39 |
| 50 | `Cc1ccc(C(=O)N2C[C@@H]3OCCN(C)[C@@H]3C2)cn1` | 3.515 | -0.3272 |
| 51 | `Cc1nc(CN2CCN(C3CCOC3)Cc3cccnc32)cs1` (stereo unspecified) | 3.641 | -9.73 |
| 52 | `COc1ccc(CNC(=O)N2CCCC(Nc3ccccc3)C2)cn1` (stereo unspecified) | 4.774 | -0.7645 |
| 53 | `c1ccc(-c2nnc(CN3CCOC(Cn4cccn4)C3)o2)cc1` (stereo unspecified) | 0.7103 | -10.2 |
| 54 | `COCCCNC(=O)N1CCCC(c2nncn2C)C1` (stereo unspecified) | 8.498 | 0.8597 |
| 55 | `O=S1(=O)NCC2(CCN(c3ncccn3)CC2)COc2ccccc21` | 5.384 | 2.231 |
| 56 | `O=C(NCc1ccco1)[C@H]1C[C@@H]2CCN(c3cccc(F)c3)C[C@H]2O1` | 1.84 | -40.94 |
| 57 | `CCc1ccc(-c2cn(CCSc3ncn[nH]3)nn2)nc1` | 1.991 | -0.9811 |
| 58 | `O=C1CC2(CCSC2)C(=O)N1Cc1coc(-c2ccccc2)n1` (stereo unspecified) | 1.472 | -3.158 |
| 59 | `O=C(NC1CC1)[C@@H]1CCO[C@@H]2CCN(Cc3ccco3)C[C@H]21` | 1.657 | -8.272 |
| 60 | `c1ccc(CCN2CCOC(CNc3cccnn3)C2)nc1` (stereo unspecified) | 5.339 | 3.674 |
| 61 | `O=C(CNC(=O)c1ccoc1)NC(c1ccc(F)cc1)C(F)(F)F` (stereo unspecified) | 3.781 | -11.85 |
| 62 | `O=C(c1ccc(F)cc1)N1CCN2C[C@H](OCc3ccccn3)C[C@H]2C1` | -3.341 | 0.116 |
| 63 | `CC(C)Oc1cc(N2CCC3(CC2)[C@H](O)C[C@@H]3O)nc(N)n1` | -0.4227 | -7.319 |
| 64 | `CN1CCC2(CC1)C(=O)N(c1cccnc1)c1ccc(F)cc12` | 2.14 | 13.42 |
| 65 | `CC(C)NC(=O)CN(C)CC(=O)/N=c1/cc[nH]n1C(C)C1CC1` (stereo unspecified) | -2.812 | -0.9028 |
| 66 | `c1ccc(CN2CC[C@@H]3[C@@H](CO[C@@H]3CNc3ncccn3)C2)nc1` | -0.9671 | -19.96 |
| 67 | `O=C(c1cnccn1)N1CCCC2(CCCN2Cc2cccnc2)C1` (stereo unspecified) | -0.8214 | -1.699 |
| 68 | `CN(C)S(=O)(=O)N1CCC2(COCc3cnc(-c4cccnc4)nc32)C1` (stereo unspecified) | 2.201 | 2.572 |
| 69 | `Cc1cccc2nc(CN3CCC(N4CCN(C)C4=O)CC3)cn12` | 8.059 | 1.038 |
| 70 | `CN(C)c1cc2c(nn1)CCN(C(=O)c1cc3c(s1)CCOC3)C2` | 1.026 | -6.241 |
| 71 | `CCc1ccc(S(=O)(=O)Nc2ccc(F)cc2C(=O)O)s1` | -0.8043 | -15.19 |
| 72 | `CCn1cc2c(n1)CN(C(=O)c1ccncc1)CC2COCC1CC1` (stereo unspecified) | 1.115 | 8.791 |
| 73 | `OC(CNCCn1cccn1)COc1ccc2ccccc2c1` (stereo unspecified) | 5.886 | 3.074 |
| 74 | `CCc1[nH]c2ccc(CNC(=O)Cc3c(C)nc(N)nc3C)cc2c1C` | 2.69 | -3.51 |
| 75 | `COc1ccc(-c2n[nH]c(C)c2CC(=O)NCCN2CCOCC2)cc1` | 2.287 | -9.576 |
| 76 | `CCc1cccc(-n2nnc(C(=O)O)c2-c2ccncc2)c1` | 4.805 | 7.223 |
| 77 | `Cc1cc(NC(=O)CN2CCc3nn(C)c(=O)cc3C2)no1` | 1.496 | -1.22 |

Repeated from the top, 6 entries:

| SMILES | PfKRS1 | ClpP1P2 |
|---|---|---|
| `Cc1ccc(N2CCCc3sc(C(=O)NCCC#N)nc32)nn1` | 5.226 | -7.223 |
| `COc1ccc(CC(=O)N2CCC3(CC2)CCN(CC(C)C)C3=O)cc1` | 5.909 | 0.07474 |
| `CC(=O)N1CCC(c2nnc3ccc(C(=O)NCC(C)C)cn23)C1` (stereo unspecified) | -1.143 | 1.509 |
| `CS(=O)(=O)N1CCC(Oc2ccc(C#N)cc2)CC1` | 1.607 | -1.707 |
| `Cc1ccc(C)c(C(=O)N2CCOC(CCN(C)C)C2)c1` (stereo unspecified) | -3.258 | -8.929 |
| `Cn1nccc1-c1cccc(CC2CCN(S(C)(=O)=O)C2)n1` (stereo unspecified) | 0.3003 | -11.88 |

Measurements from “University of Dundee, Small-Polar-MMV Screening Library” (2021), ChEMBL document CHEMBL3988442.